Reference: article PMC9074688
These are yes or no findings as the source states them, for the method shown. Binding seen in cells or lysates may run through a third protein. Some entries that bind do so weakly or less than the wild type.

By UniProt entry, the sequences of proteins in these tests, tags left out.
UniProt Q04207: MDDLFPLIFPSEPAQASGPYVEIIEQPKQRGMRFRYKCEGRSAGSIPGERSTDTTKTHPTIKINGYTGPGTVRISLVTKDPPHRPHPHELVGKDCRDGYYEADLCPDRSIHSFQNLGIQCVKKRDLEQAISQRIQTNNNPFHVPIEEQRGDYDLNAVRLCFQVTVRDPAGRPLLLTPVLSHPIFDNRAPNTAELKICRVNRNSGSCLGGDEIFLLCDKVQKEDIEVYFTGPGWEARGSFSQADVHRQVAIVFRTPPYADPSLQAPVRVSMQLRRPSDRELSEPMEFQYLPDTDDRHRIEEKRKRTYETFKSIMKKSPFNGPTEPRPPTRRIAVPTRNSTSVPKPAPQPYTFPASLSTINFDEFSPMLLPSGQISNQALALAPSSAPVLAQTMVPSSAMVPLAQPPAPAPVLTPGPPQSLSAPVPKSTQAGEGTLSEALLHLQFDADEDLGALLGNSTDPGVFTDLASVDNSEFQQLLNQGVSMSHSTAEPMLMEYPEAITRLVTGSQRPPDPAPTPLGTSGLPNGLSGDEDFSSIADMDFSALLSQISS
UniProt Q06831: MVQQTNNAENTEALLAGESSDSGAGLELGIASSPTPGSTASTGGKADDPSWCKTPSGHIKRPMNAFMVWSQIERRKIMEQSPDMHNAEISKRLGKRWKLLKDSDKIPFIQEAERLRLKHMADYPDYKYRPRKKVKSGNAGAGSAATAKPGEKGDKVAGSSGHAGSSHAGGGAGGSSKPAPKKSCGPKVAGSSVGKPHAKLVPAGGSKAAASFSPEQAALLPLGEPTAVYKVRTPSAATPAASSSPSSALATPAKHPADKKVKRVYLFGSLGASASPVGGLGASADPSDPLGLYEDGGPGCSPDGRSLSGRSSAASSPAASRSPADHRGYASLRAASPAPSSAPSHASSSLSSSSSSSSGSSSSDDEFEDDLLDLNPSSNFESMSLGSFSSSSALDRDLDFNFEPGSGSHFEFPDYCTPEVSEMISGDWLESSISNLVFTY

Biological target: RELA/p65 (mouse (endogenous in mouse FLS)) (UniProt Q04207)
Experiment: co-IP; nuclear extracts of wildtype mouse FLS treated with or without TNF (10 ng/mL, 16 h); p65 antibody or rabbit non-immune IgG on Dynabeads, overnight; western blot for SOX4, p65, HDAC1

SOX4 (from UniProt Q06831 1-440)
binding: binds
